Reference: the supplement of paper PMC8728848
The list shows a part of the results.

What was measured:
Assay in all cases: glycan array binding signal (z-score within array); higher = stronger binding
Conditions in all cases: glycan notation: IUPAC condensed, linker removed
Kdn(a2-3)Gal(b1-4)Glc = target: Kdn(a2-3)Gal(b1-4)Glc
How it was run: (§1)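 The Consortium for Functional Glycomics database supplied 3228 glycan arrays, of which those lacking an available protein sequence were dropped. The binding signal, a within-array Z-score, was averaged across arrays of the same protein sequence and across linkers. Negative scores can be read as non-binding.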

Kdn(a2-3)Gal(b1-4)GlcNAc = target: Kdn(a2-3)Gal(b1-4)GlcNAc
How it was run: as §1

[1] = target: Kdn(a2-3)Gal(b1-4)[Fuc(a1-3)]GlcNAc
How it was run: as §1

Kdn(a2-6)Gal(b1-4)GlcNAc = target: Kdn(a2-6)Gal(b1-4)GlcNAc
How it was run: as §1

[2] = target: Man(a1-2)Man(a1-2)Man(a1-3)Man
How it was run: as §1

[3] = target: Man(a1-2)Man(a1-2)Man(a1-6)[Man(a1-3)]Man
How it was run: as §1

Man(a1-2)Man(a1-3)Man = target: Man(a1-2)Man(a1-3)Man
How it was run: as §1

[4] = target: Man(a1-2)Man(a1-3)[Man(a1-2)Man(a1-6)]Man
How it was run: as §1

[5] = target: Man(a1-2)Man(a1-3)[Man(a1-2)Man(a1-6)]Man(a1-6)[Man(a1-2)Man(a1-2)Man(a1-3)]Man
How it was run: as §1

[6] = target: Man(a1-2)Man(a1-3)[Man(a1-2)Man(a1-6)]Man(a1-6)[Man(a1-2)Man(a1-2)Man(a1-3)]Man(b1-4)GlcNAc(b1-4)GlcNAc
How it was run: as §1

[7] = target: Man(a1-2)Man(a1-3)[Man(a1-6)]Man(a1-6)[Man(a1-2)Man(a1-3)]Man(b1-4)GlcNAc(b1-4)GlcNAc
How it was run: as §1

[8] = target: Man(a1-2)Man(a1-6)[Man(a1-3)]Man(a1-6)[Man(a1-2)Man(a1-2)Man(a1-3)]Man
How it was run: as §1

[9] = target: Man(a1-2)Man(a1-6)[Man(a1-3)]Man(a1-6)[Man(a1-2)Man(a1-2)Man(a1-3)]Man(b1-4)GlcNAc(b1-4)GlcNAc
How it was run: as §1

Man(a1-3)[Man(a1-6)]Man = target: Man(a1-3)[Man(a1-6)]Man
How it was run: as §1

[10] = target: Man(a1-3)[Man(a1-6)]Man(a1-6)[Man(a1-2)Man(a1-3)]Man(b1-4)GlcNAc(b1-4)GlcNAc
How it was run: as §1

[11] = target: Man(a1-3)[Man(a1-6)]Man(a1-6)[Man(a1-3)]Man
How it was run: as §1

[12] = target: Man(a1-3)[Man(a1-6)]Man(a1-6)[Man(a1-3)]Man(b1-4)GlcNAc(b1-4)GlcNAc
How it was run: as §1

[13] = target: Man(a1-3)[Man(a1-6)]Man(b1-4)GlcNAc(b1-4)GlcNAc
How it was run: as §1

[14] = target: Man(a1-3)[Man(a1-6)]Man(b1-4)GlcNAc(b1-4)[Fuc(a1-6)]GlcNAc
How it was run: as §1

Man(a1-6)Man = target: Man(a1-6)Man
How it was run: as §1

Man(b1-4)GlcNAc = target: Man(b1-4)GlcNAc
How it was run: as §1

MurNAc(b1-4)GlcNAc = target: MurNAc(b1-4)GlcNAc
How it was run: as §1

Neu5Ac(a2-3)Gal = target: Neu5Ac(a2-3)Gal
How it was run: as §1

[15] = target: Neu5Ac(a2-3)Gal(b1-3)GalNAc
How it was run: as §1

[16] = target: Neu5Ac(a2-3)Gal(b1-3)GalNAc(b1-3)Gal(a1-4)Gal(b1-4)Glc
How it was run: as §1

[17] = target: Neu5Ac(a2-3)Gal(b1-3)GalNAc(b1-4)Gal(b1-4)Glc
How it was run: as §1

[18] = target: Neu5Ac(a2-3)Gal(b1-3)GalNAc(b1-4)[Neu5Ac(a2-3)]Gal(b1-4)Glc
How it was run: as §1

[19] = target: Neu5Ac(a2-3)Gal(b1-3)GalNAc(b1-4)[Neu5Ac(a2-8)Neu5Ac(a2-3)]Gal(b1-4)Glc
How it was run: as §1

[20] = target: Neu5Ac(a2-3)Gal(b1-3)GalNAc6S
How it was run: as §1

[21] = target: Neu5Ac(a2-3)Gal(b1-3)GlcNAc
How it was run: as §1

[22] = target: Neu5Ac(a2-3)Gal(b1-3)GlcNAc(b1-2)Man
How it was run: as §1

[23] = target: Neu5Ac(a2-3)Gal(b1-3)GlcNAc(b1-2)Man(a1-3)[GlcNAc(b1-4)][Neu5Ac(a2-3)Gal(b1-3)GlcNAc(b1-2)Man(a1-6)]Man(b1-4)GlcNAc(b1-4)GlcNAc
How it was run: as §1

[24] = target: Neu5Ac(a2-3)Gal(b1-3)GlcNAc(b1-2)Man(a1-3)[Neu5Ac(a2-3)Gal(b1-3)GlcNAc(b1-2)Man(a1-6)]Man(b1-4)GlcNAc(b1-4)GlcNAc
How it was run: as §1

[25] = target: Neu5Ac(a2-3)Gal(b1-3)GlcNAc(b1-2)[Neu5Ac(a2-3)Gal(b1-3)GlcNAc(b1-4)]Man(a1-6)[Neu5Ac(a2-3)Gal(b1-3)GlcNAc(b1-2)Man(a1-3)]Man(b1-4)GlcNAc(b1-4)GlcNAc
How it was run: as §1

[26] = target: Neu5Ac(a2-3)Gal(b1-3)GlcNAc(b1-3)Gal(b1-3)GlcNAc
How it was run: as §1

[27] = target: Neu5Ac(a2-3)Gal(b1-3)GlcNAc(b1-3)Gal(b1-4)GlcNAc
How it was run: as §1

[28] = target: Neu5Ac(a2-3)Gal(b1-3)GlcNAc(b1-3)GalNAc
How it was run: as §1

[29] = target: Neu5Ac(a2-3)Gal(b1-3)GlcNAc(b1-6)GalNAc
How it was run: as §1

B1: truncCC1G-10077 (Coprinopsis cinerea) (protein)
chain: MHHHHHHHHPLPSPGPGWVLIQNGGTGKFLCSTPSGDIGTADGPETVYDYSVQWRFIQREYTGVYHVVNRATGAYLRQIGTSMPSIGLAEENDDELKDWWMLETYDNSEIGLASIISRWTGNVLDHYGGVSVQALDNNTENSYRSWAIIPARDWLTSFSLVNGQGGLCLAAQYAREETRLSTTANVNDFHAQWVFRKPSGSSGYTIQNKYNNHYVGGTSARWELVVCCNKYFGIRNTSTQKYLAIEDGQVTFQDQDMTDRKQCWELCSGRATDTSGNDYDLIYMDDDLLEVMIPWVGDKQGDLKHYIEKRATKKPPKDKGGWQLPAAGLIKKPKFNDIRQLLQELIEQWEWDVVNEEREQIQTLVSIDEAEARRLLGRRPHPDIVAAYQRSRSSTLFRIDRQGYFNIAGDRYVNIQGQYGDDSYFHIALPVGVRFGREQIRRFLRDSLDRSTSVTITPTTCKPPSGGPDYNRDPDSDGDNSWIKWTIAVVGTSAIKHSEL
glycan array binding signal (z-score) (Kdn(a2-3)Gal(b1-4)Glc): 0.478 | glycan array binding signal (z-score) (Kdn(a2-3)Gal(b1-4)GlcNAc): 0.697 | glycan array binding signal (z-score) [1]: 1.26 | glycan array binding signal (z-score) (Kdn(a2-6)Gal(b1-4)GlcNAc): 0.939 | glycan array binding signal (z-score) [2]: -1.01 | glycan array binding signal (z-score) [3]: 0.989 | glycan array binding signal (z-score) (Man(a1-2)Man(a1-3)Man): -0.749 | glycan array binding signal (z-score) [4]: -0.833 | glycan array binding signal (z-score) [5]: -0.731 | glycan array binding signal (z-score) [6]: 0.343 | glycan array binding signal (z-score) [7]: -0.602 | glycan array binding signal (z-score) [8]: -1.18 | glycan array binding signal (z-score) [9]: 0.539 | glycan array binding signal (z-score) (Man(a1-3)[Man(a1-6)]Man): -0.352 | glycan array binding signal (z-score) [10]: -0.063 | glycan array binding signal (z-score) [11]: 0.384 | glycan array binding signal (z-score) [12]: 1.81 | glycan array binding signal (z-score) [13]: -0.43 | glycan array binding signal (z-score) [14]: -0.725 | glycan array binding signal (z-score) (Man(a1-6)Man): 2.68 | glycan array binding signal (z-score) (Man(b1-4)GlcNAc): 0.574 | glycan array binding signal (z-score) (MurNAc(b1-4)GlcNAc): 0.242 | glycan array binding signal (z-score) (Neu5Ac(a2-3)Gal): -0.757 | glycan array binding signal (z-score) [15]: 1.15 | glycan array binding signal (z-score) [16]: 0.477 | glycan array binding signal (z-score) [17]: 0.287 | glycan array binding signal (z-score) [18]: -0.557 | glycan array binding signal (z-score) [19]: 0.156 | glycan array binding signal (z-score) [20]: -0.721 | glycan array binding signal (z-score) [21]: -0.093 | glycan array binding signal (z-score) [22]: -0.385 | glycan array binding signal (z-score) [23]: -0.397 | glycan array binding signal (z-score) [24]: 1.47 | glycan array binding signal (z-score) [25]: 1.06 | glycan array binding signal (z-score) [26]: 0.721 | glycan array binding signal (z-score) [27]: -0.343 | glycan array binding signal (z-score) [28]: -0.61 | glycan array binding signal (z-score) [29]: -0.615
